# Source: PubChem BioAssay AID1508597 (Cure First, 2020)
# Assay: 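Survival screen with siRNA in ovarian cancer cells derived from patients, with or without rucaparib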 (primary screen)
# System: human ovarian carcinoma lines grown from tumours: OCI-P5x (papillary serous) and OCI-C5x (clear cell)
# Reagents: siRNA pool against human genes, 1.25 pmol siRNA per well
# Timing: 72 h or 96 h, depending on the cell culture
# Treatment: rucaparib 20 µM (about IC30) or vehicle, present until read-out
# Rucaparib or vehicle: Vehicle
# Cell line: OCI-P5x (serous)
# Read-out: 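Luminescent ATP-based viability assay read 72 or 96 h after transfection, depending on culture, given as normalised percent viability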
# Scale: viability, normalised: higher = more viable cells remaining
# Call rule: 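Active when normalised viability falls below 80 percent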
# Calls: active = viability under 80%; inactive = viability 80% or more
# This is an unselected part of the about 2,100 reagents, in one setting of the screen. 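Calls flag viability under 80% in either arm, not effects specific to rucaparib; the reference for percent is not stated.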 A reagent listed more than once was tested more than once; the source does not tell the runs apart. Not given: the 100% reference.
Gene,technical replicate,"viability, normalised (%)",call
SGK2 (serum/glucocorticoid regulated kinase 2),1,125,inactive
SGK2 (serum/glucocorticoid regulated kinase 2),2,102,inactive
SGK2 (serum/glucocorticoid regulated kinase 2),3,86.9,inactive
APC (APC regulator of Wnt signaling pathway),1,44.2,active
APC (APC regulator of Wnt signaling pathway),1,63.2,active
APC (APC regulator of Wnt signaling pathway),2,41,active
APC (APC regulator of Wnt signaling pathway),2,47.1,active
APC (APC regulator of Wnt signaling pathway),3,50,active
APC (APC regulator of Wnt signaling pathway),3,46.7,active
"ERCC6 (ERCC excision repair 6, chromatin remodeling factor)",1,69,active
"ERCC6 (ERCC excision repair 6, chromatin remodeling factor)",2,71.2,active
"ERCC6 (ERCC excision repair 6, chromatin remodeling factor)",3,67.2,active

A few values from above.
Value of SGK2 (serum/glucocorticoid regulated kinase 2), technical replicate 3 under “call”: inactive
Result for ERCC6 (ERCC excision repair 6, chromatin remodeling factor), technical replicate 2 under “call”: active

Further entries follow:
Gene,technical replicate,"viability, normalised (%)",call
XPO5 (exportin 5),1,65.8,active
XPO5 (exportin 5),2,54.6,active
XPO5 (exportin 5),3,81.6,inactive
ACVR2B (activin A receptor type 2B),1,66.2,active
ACVR2B (activin A receptor type 2B),2,51.7,active
ACVR2B (activin A receptor type 2B),3,74.9,active
SIRT4 (sirtuin 4),1,43.5,active
SIRT4 (sirtuin 4),2,61.9,active
SIRT4 (sirtuin 4),3,64.1,active
POU4F1 (POU class 4 homeobox 1),1,61.7,active
POU4F1 (POU class 4 homeobox 1),2,57.6,active
POU4F1 (POU class 4 homeobox 1),3,45.8,active
